The text below walks through data of PubChem BioAssay AID264 (DTP/NCI, 2004).

The subject of this assay is nude mice, LX-1 lung xenograft intrarenal, tumor weight T/C. The assay is described as follows: NCI In Vivo Anticancer Drug Screen. Data for tumor model Human Lung LX-1 Xenograft (intrarenal inoculation) in NU/NU Swiss (nude) mice. The following applies: T/C endpoint: mean tumor weight change, higher T/C = larger tumour; for T/C: evaluated on day 11. The method, then: The antitumor activity of compounds was measured in mice bearing transplantable tumors. Survival or tumor size were measured and the results are expressed as the measurement made in the treated group (T) divided by the measurement made in the vehicle treated control group (C). The tumor model used in this assay is Human Lung LX-1 Xenograft (intrarenal inoculation) in NU/NU Swiss (nude) mice

[1] abbreviates: dose: 25.0 mg/kg/injection, schedule: Q04DX003 (sc), vehicle: Klucel (hydroxypropylcellulose) (HPC).
[2] abbreviates: dose: 50.0 mg/kg/injection, schedule: Q04DX003 (sc), vehicle: Klucel (hydroxypropylcellulose) (HPC).

The list does not hold the whole screen: it gathers tests that were run many times, whatever their T/C, doses with no T/C, and many T/C values between a quarter and a half above the control. Other doses and runs of a compound stand elsewhere. T/C gives the treated animals as a percentage of the vehicle group. Schedule codes are those of the source, taken here to give the interval after Q, in days (D) or hours (H), and the number of doses after X. Some T/C values are followed by the survivors on the day toxicity was checked, most often the fifth; where none is given, no animal had died by that day. Some doses have a count of surviving animals in place of a T/C: the source holds a T/C of zero for them, seemingly a mark for toxic or unscored doses. Survivors were counted at the toxicity check, usually on the fifth day, unless a day is given; later deaths do not show. Some entries hold several experiments; the values are given in rising order. Some molecules as drawn cover several salts, stereoisomers or complexes of the source; a dose is that of the sample tested.

Take `COc1cccc2c1C(=O)c1c(O)c3c(c(O)c1C2=O)C[C@@](O)(C(C)=O)C[C@@H]3OC1CC(N(Cc2ccccc2)Cc2ccccc2)C(O)C(C)O1` (stereo partly specified): the survivor count was 0 of 3 on day 11 (dose: 50.0 mg/kg/injection, schedule: Q01DX010 (sc), vehicle: water); 0 of 3 on day 11 (dose: 100.0 mg/kg/injection, schedule: Q01DX010 (sc), vehicle: water); 0 of 3 on day 11 (dose: 200.0 mg/kg/injection, schedule: Q01DX010 (sc), vehicle: water).
With `CCCCCC[C@H]([C@H](C)O)n1cnc2c(N)ncnc21`, the survivor count is, setting by setting: (dose: 400.0 mg/kg/injection, schedule: Q01DX010 (sc), vehicle: Klucel (hydroxypropylcellulose) (HPC)) 0 of 3 on day 11; (dose: 800.0 mg/kg/injection, schedule: Q01DX010 (sc), vehicle: Klucel (hydroxypropylcellulose) (HPC)) 0 of 3 on day 11.
Take `C=C1N(C)c2ccccc2C1(C)C`: the survivor count is, setting by setting: (dose: 200.0 mg/kg/injection, schedule: Q04DX003 (sc), vehicle: saline with Tween-80) 1 of 6 on day 11; (dose: 400.0 mg/kg/injection, schedule: Q04DX003 (sc), vehicle: saline with Tween-80) 0 of 6 on day 11.
Take `O=C(O)C1CC(c2ccccc2)=NN1c1ccccc1` (stereo unspecified): the survivor count by setting is: (dose: 300.0 mg/kg/injection, schedule: Q04DX003 (sc), vehicle: water) 3 of 6 on day 11; (dose: 600.0 mg/kg/injection, schedule: Q04DX003 (sc), vehicle: water) 1 of 6 on day 11.
With `CC1=CC(=NN=c2cc(C)n([O-])c(C)c2)C=C(C)[N+]1=O`, the T/C is 138 % of control (dose: 600.0 mg/kg/injection, schedule: Q04DX003 (sc), vehicle: suspension in saline) and 144 % of control [5 of 6 alive on day 11] (dose: 2400.0 mg/kg/injection, schedule: Q04DX003 (sc), vehicle: suspension in saline).
As for `c1ccc([P+](c2ccccc2)(c2ccccc2)c2ccccc2)cc1`, the survivor count by setting is: (dose: 40.0 mg/kg/injection, schedule: Q04DX003 (sc), vehicle: saline) 0 of 6 on day 11; (dose: 80.0 mg/kg/injection, schedule: Q04DX003 (sc), vehicle: saline) 0 of 6 on day 11.
On to `O=C1C=C[C@H](O)[C@@]2(CO)O[C@@H]12`, for which the T/C (dose: 3.12 mg/kg/injection, schedule: Q04DX003 (sc), vehicle: saline with Tween-80) is 132 % of control. For the same compound, the survivor count (dose: 25.0 mg/kg/injection, schedule: Q04DX003 (sc), vehicle: saline with Tween-80) is 0 of 6 on day 11.
Take `C[C@@]1(CO)[C@H](O)CC[C@@]2(C)[C@H]1CC[C@H]1C[C@@H]3C[C@@]12CC[C@@]3(O)COC(=O)CN`: the T/C runs as follows: (dose: 88.6 mg/kg/injection, schedule: Q01DX010 (sc), vehicle: saline + alcohol) 137 % of control; (dose: 300.0 mg/kg/injection, schedule: Q01DX010 (sc), vehicle: saline + alcohol) 136 % of control [4 of 6 alive on day 11]; (dose: 125.0 micrograms/kg/injection, schedule: Q01DX010 (sc), vehicle: saline + alcohol) 131 % of control; (dose: 250.0 micrograms/kg/injection, schedule: Q01DX010 (sc), vehicle: saline + alcohol) 125 % of control.
On to `O=C(Nc1nncs1)c1ccncc1`, for which the T/C (dose: 400.0 mg/kg/injection, schedule: Q01DX010 (sc), vehicle: saline with Tween-80) is 127 % of control [2 of 3 alive on day 11].
For `O=NN(CCF)C(=O)NC1CCCCC1`, the survivor count was 2 of 6 on day 11 under setting [1] and 0 of 6 on day 11 under setting [2].
With `NC(=O)CC(N)C(=O)O` (stereo unspecified), the survivor count (dose: 6400.0 mg/kg/injection, schedule: Q04DX003 (sc), vehicle: saline) is 3 of 6 on day 11.
`Nc1ncn(C2OC(CO)C(O)C2O)c(=O)n1` (stereo unspecified): under “dose: 0.38 mg/kg/injection, schedule: Q01DX010 (sc), vehicle: saline”, the T/C was 142 % of control. Further, the survivor count (dose: 1.5 mg/kg/injection, schedule: Q01DX010 (sc), vehicle: saline) was 0 of 3 on day 11 and the survivor count (dose: 1536.0 mg/kg/injection, schedule: Q04DX003 (sc), vehicle: suspension in saline) was 1 of 6 on day 11.
In the case of `CC(=O)OCC1OC([S-])C(OC(C)=O)C(OC(C)=O)C1OC(C)=O.CC[PH+](CC)CC.CC[PH+](CC)CC.[Au].[Au]` (stereo unspecified), the survivor count is 0 of 6 on day 11 and 2 of 6 on day 11 under setting [1]; 0 of 6 on day 11 under setting [2]; 0 of 6 on day 11 (dose: 100.0 mg/kg/injection, schedule: Q04DX003 (sc), vehicle: Klucel (hydroxypropylcellulose) (HPC)); 0 of 6 on day 11 (dose: 200.0 mg/kg/injection, schedule: Q04DX003 (sc), vehicle: Klucel (hydroxypropylcellulose) (HPC)).
Consider `CC(=O)Nc1ccc(O)c(O)c1`, for which, under “dose: 1200.0 mg/kg/injection, schedule: Q04DX003 (sc), vehicle: saline with Tween-80”, the T/C is 128 % of control [5 of 6 alive on day 11].
Turning to `Nc1ncnc2c1ncn2C1OC(CO)C(O)C1O` (stereo unspecified), the survivor count (dose: 100.0 mg/kg/injection, schedule: Q01DX010 (sc), vehicle: saline) is 0 of 3 on day 11 and the survivor count (dose: 200.0 mg/kg/injection, schedule: Q01DX010 (sc), vehicle: saline) is 0 of 3 on day 11.
Take `O=C1c2ccccc2C(=O)c2c3c(cc(NCCNCCO)c21)N(CCO)CCN3`: the survivor count (dose: 1600.0 mg/kg/injection, schedule: Q04DX003 (sc), vehicle: DMSO) is on record as 0 of 6 on day 11.
As to `CNc1n[n+](-c2ccccc2)no1`, the T/C (dose: 18.75 mg/kg/injection, schedule: Q04DX003 (sc), vehicle: water) is 126 % of control. For the same compound, where the note is “dose: 150.0 mg/kg/injection, schedule: Q04DX003 (sc), vehicle: water”, the survivor count was 2 of 6 on day 11.
Regarding `Nc1n[nH]c(N)n1`, where the note is “dose: 1600.0 mg/kg/injection, schedule: Q01DX010 (sc), vehicle: saline”, the survivor count is 1 of 3 on day 11.
With `O=C1c2c(O)ccc(O)c2C(=O)c2c(NCCNCCO)ccc(NCCNCCO)c21`, the survivor count is on record as 1 of 3 on day 11 (dose: 2.0 mg/kg/injection, schedule: Q01DX010 (sc), vehicle: water); 0 of 3 on day 11 (dose: 4.0 mg/kg/injection, schedule: Q01DX010 (sc), vehicle: acid diluted with saline); 0 of 3 on day 11 (dose: 4.0 mg/kg/injection, schedule: Q01DX010 (sc), vehicle: water); 0 of 6 on day 11 (dose: 20.0 mg/kg/injection, schedule: Q04DX003 (sc), vehicle: water); 0 of 6 on day 11 (dose: 40.0 mg/kg/injection, schedule: Q04DX003 (sc), vehicle: water).
In the case of `CC(=O)O[C@@H]1[C@@H](O)C2=C3[C@]4(C)[C@@H]1C(C)(C)C(=O)C[C@@H]4[C@]3(O)[C@H](OC(C)=O)[C@@]1(C[C@@H]1C)C2=O`, the survivor count (dose: 100.0 mg/kg/injection, schedule: Q01DX010 (sc), vehicle: saline with Tween-80) is 1 of 2 on day 11.
`CC1(C)COCN1COCCOCN1COCC1(C)C`: under “dose: 100.0 mg/kg/injection, schedule: Q04DX003 (sc), vehicle: saline”, the T/C was 141 % of control. Besides, the survivor count (dose: 800.0 mg/kg/injection, schedule: Q04DX003 (sc), vehicle: saline) was 3 of 6 on day 11.
`CC(=O)c1c(O)c(C)c(O)c2c1OC1=CC(=O)C(C(C)=O)C(=O)C12C` (stereo unspecified): the survivor count is recorded as 1 of 3 on day 11 (dose: 400.0 mg/kg/injection, schedule: Q01DX010 (sc), vehicle: sodium bicarbonate) and 0 of 3 on day 11 (dose: 800.0 mg/kg/injection, schedule: Q01DX010 (sc), vehicle: sodium bicarbonate).
`C[n+]1c(/C=N/NC(N)=S)ccc2ccccc21`: the survivor count (dose: 2400.0 mg/kg/injection, schedule: Q04DX003 (sc), vehicle: saline with Tween-80) is 0 of 6 on day 11.
Regarding `C1CNCOC1`, the survivor count by setting is: (dose: 600.0 mg/kg/injection, schedule: Q04DX003 (sc), vehicle: saline) 3 of 6 on day 11; (dose: 1200.0 mg/kg/injection, schedule: Q04DX003 (sc), vehicle: saline) 0 of 6 on day 11; (dose: 2400.0 mg/kg/injection, schedule: Q04DX003 (sc), vehicle: saline) 0 of 6 on day 11.
